Test results published in PMC9251544.
These are yes or no findings as the source states them, for the method shown. Binding seen in cells or lysates may run through a third protein. Some results given as binding are weak or reduced against the parent protein; the word gives no strength. Sequences can lack the tags named with a protein.

Biological target: T1, 3×HA-xtMc1r (Xenopus tropicalis melanocortin 1 receptor) (Xenopus tropicalis)
T1 sequence: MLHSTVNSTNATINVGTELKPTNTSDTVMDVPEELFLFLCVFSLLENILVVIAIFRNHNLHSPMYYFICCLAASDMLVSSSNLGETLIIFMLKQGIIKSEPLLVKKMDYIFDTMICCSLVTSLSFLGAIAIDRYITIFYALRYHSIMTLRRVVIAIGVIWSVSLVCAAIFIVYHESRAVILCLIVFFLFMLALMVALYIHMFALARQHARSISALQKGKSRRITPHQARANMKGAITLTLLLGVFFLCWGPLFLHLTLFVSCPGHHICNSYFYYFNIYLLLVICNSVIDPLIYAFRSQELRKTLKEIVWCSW
Assay: co-IP; 3×HA-xtMc1r and v5-xtMraps-flag co-transfected in HEK293T; lysate incubated with anti-HA rabbit mAb overnight at 4°C, protein A+G agarose beads; blots with anti-HA and anti-FLAG

binding: binds
B1: v5-xtMrap2-flag (Xenopus tropicalis melanocortin receptor accessory protein 2) (protein, UniProt A0A7D9NLE1 1-205)
chain: MSEQTVQTNRTSHKQLSNSDYTWEYEYYEYAPVSFEGLKAHKYSIVIGFWVGLAVFVIFMFFVLTLLAKTGAPHQENVDSLEKQFRMDSFAPDFGRNTEADTDRIFSRNVTEESRSLFHCYINEVDQPERIKNRNRAMDNEIIIQQTIRNSKVEEDINMIAKFNIPNFVNTDQSSSIGDDDLLLYDPPMNLENKAVHTSLCDFMN
